Assay results reported in paper PMC12853880.
Results are given in words; binding and its absence hold for the method and conditions named. Binding seen in cells or lysates may run through a third protein. Here binding means that the protein was enriched with, or labelled near, the bait; the list need not be complete.

B1: FSD2, endogenous (enzyme, UniProt Q9LU64 47-305)
chain: GVITAGFELKPPPYPLDALEPHMSRETLDYHWGKHHKTYVENLNKQILGTDLDALSLEEVVLLSYNKGNMLPAFNNAAQAWNHEFFWESIQPGGGGKPTGELLRLIERDFGSFEEFLERFKSAAASNFGSGWTWLAYKANRLDVANAVNPLPKEEDKKLVIVKTPNAVNPLVWDYSPLLTIDTWEHAYYLDFENRRAEYINTFMEKLVSWETVSTRLESAIARAVQREQEGTETEDEENPDDEVPEVYLDSDIDVSEVD
B2: … SUPEROXIDE DISMUTASE 1 (MSD1), endogenous (enzyme, UniProt O81235 30-231)
chain: TFTLPDLPYDYGALEPAISGEIMQIHHQKHHQAYVTNYNNALEQLDQAVNKGDASTVVKLQSAIKFNGGGHVNHSIFWKNLAPSSEGGGEPPKGSLGSAIDAHFGSLEGLVKKMSAEGAAVQGSGWVWLGLDKELKKLVVDTTANQDPLVTKGGSLVPLVGIDVWEHAYYLQYKNVRPEYLKNVWKVINWKYASEVYEKENN
B3: FSD3, endogenous (enzyme, UniProt Q9FMX0 42-263)
chain: GGLKVEAYYGLKTPPYPLDALEPYMSRRTLEVHWGKHHRGYVDNLNKQLGKDDRLYGYTMEELIKATYNNGNPLPEFNNAAQVYNHDFFWESMQPGGGDTPQKGVLEQIDKDFGSFTNFREKFTNAALTQFGSGWVWLVLKREERRLEVVKTSNAINPLVWDDIPIICVDVWEHSYYLDYKNDRAKYINTFLNHLVSWNAAMSRMARAEAFVNLGEPNIPIA
B4: ASCORBATE PEROXIDASE 3, endogenous (enzyme, UniProt Q42564 1-287)
chain: MAAPIVDAEYLKEITKARRELRSLIANKNCAPIMLRLAWHDAGTYDAQSKTGGPNGSIRNEEEHTHGANSGLKIALDLCEGVKAKHPKITYADLYQLAGVVAVEVTGGPDIVFVPGRKDSNVCPKEGRLPDAKQGFQHLRDVFYRMGLSDKDIVALSGGHTLGRAHPERSGFDGPWTQEPLKFDNSYFVELLKGESEGLLKLPTDKTLLEDPEFRRLVELYAKDEDAFFRDYAESHKKLSELGFNPNSSAGKAVADSTILAQSAFGVAVAAAVVAFGYFYEIRKRMK
B5: TUDOR STAPHYLOCOCCAL NUCLEASE 2 (TSN2), endogenous (protein, UniProt Q9FLT0 1-985)
chain: MATGAATENQWLKGRVKAVTSGDCLVITALTHNRAGPPPEKTITLSSLMAPKMARRGGIDEPFAWESREFLRKLCIGKEVAFKVDYKVEAIAGREFGSVYLGNENLAKLVVQNGWAKVRRPGQQNQDKVSPYIAELEQLEEQAQQEGFGRWSKVPGAAEASIRNLPPSAVGDSGNFDAMGLLAASKGKPMEGIVEQVRDGSTIRVYLLPEFQFVQVFVAGLQAPSMGRRQSTQEAVVDPDVTATSNGDASAETRGPLTTAQRLAASAASSVEVSSDPFAMEAKYFTELRVLNRDVRIVLEGVDKFNNLIGSVYYSDGDTVKDLGLELVENGLAKYVEWSANMLDEEAKKKLKATELQCKKNRVKMWANYVPPASNSKAIHDQNFTGKVVEVVSGDCLVVADDSIPFGSPMAERRVCLSSIRSPKMGNPRREEKPAPYAREAKEFLRQKLIGMEVIVQMEYSRKISPGDGVTTSGAGDRVMDFGSVFLPSPTKGDTAVAAAATPGANIAELIISRGLGTVVRHRDFEERSNHYDALLAAEARAIAGKKNIHSAKDSPALHIADLTVASAKKAKDFLPSLQRINQISAVVEYVLSGHRFKLYIPKESCSIAFAFSGVRCPGRGEPYSEEAIALMRRKIMQRDVEIVVENVDRTGTFLGSMWEKNSKTNAGTYLLEAGLAKMQTGFGADRIPEAHILEMAERSAKNQKLKIWENYVEGEEVVNGSSKVETRQKETLKVVVTEVLGGGRFYVQTVGDQKVASIQNQLAALSLKDAPIIGSFNPKKGDIVLAQFSLDNSWNRAMIVNGPRGAVQSPEEEFEVFYIDYGNQEIVPYSAIRPVDPSVSSAPGLAQLCRLAYIKVPGKEEDFGRDAGEYLHTVTLESGKEFRAVVEERDTSGGKVKGQGTGTELVVTLIAVDDEISVNAAMLQEGIARMEKRRRWEPKDKQAALDALEKFQDEARKSRTGIWEYGDIQSDDEDNVPVRKPGRG
B6: TUDOR STAPHYLOCOCCAL NUCLEASE 1 (TSN1), endogenous (protein, UniProt Q8VZG7 1-991)
chain: MATGAENQWLKGRVKAVTSGDCLVITALSHNRAGPPPEKTITFSSLMAPKMARRGGIDEPFAWESKEFLRKLCIGKEVAFKVDYKVEAIAGREFGSVFLGNENLAKLVVKTGWAKVREPGQQNQDKVSPYIKELLQLEELAKQEGYGRWSKVPGAAEASIRNLPPSAIGDSAGFDAMGLLAANKGKPMEGIVEQVRDGSTIRVYLLPEFQFVQVFVAGVQAPSMGRRTTNGSVVETVPDEPNGDVSAESRGPLTTAQRLAASAASSVEVSSDPFATEAKYFTEHRVLSRDVRIVLEGVDKFNNLIGSVHYSDGETVKDLGLELVENGLAKFVEWSANMMEEEAKKKLKAAELQCKKDKVKMWANYVPPATNSKAIHDQNFTGKVVEVVSGDCLIVADDAVPFGSPAAERRVCLSSIRSPKMGNPRREEKPAPYAREAREFLRQRLIGKQVIVQMEYSRKVTQGDGPTTSGAADRFMDFGSVFLPSAAKADSDEVTAPPAAAIAGSQPVGVNIAELVLVRGFGNVVRHRDFEERSNHYDALLAAEARALAGKKGIHSAKESPAMHITDLTVSAAKKAKDFLPSLQRIRRIPAVVEYVLSGHRFKLYIPKITCSIAFSFSGVRCPGRGEPYSEEAISVMRRRIMQRDVEIEVETVDRTGTFLGSMWESRTNVATVLLEAGLAKMQTSFGADRIAEAHLLEQAERSAKNQKLKIWENYVEGEEVSNGNTNTVETRQKETLKVVVTEVLGGGRFYVQSAGDQKIASIQNQLASLSIKDAPIIGSFNPKRGDIVLAQFSLDNSWNRAMIVTAPRAAVQSPDEKFEVFYIDYGNQETVPYSAIRPIDPSVSAAPGLAQLCRLAYIKVPSLEDDFGPEAGEYLHTVTLGSGKEFKAVIEERDTSGGKVKGQGTGTEFVVTLIAVDDEISVNAAMLQEGIARMEKRQKWGHKGKQAALDALEKFQEEARKSRIGIWQYGDIESDDEDTGPARKPAGGRR

Each binder was assayed against RACK1A-GFP (RECEPTOR FOR … C KINASE 1A fused to GFP, 5'UTR-pRACK1A::gRACK1A:GFP:3'UTR) (Arabidopsis thaliana) (UniProt O24456) (assay: affinity purification with mass spectrometry; GFP trap of RACK1A-GFP from extracts of 14-d-old seedlings of the RACK1A-GFP line treated with liquid 1/2 MS with or without 150 mM NaCl for 1 h; on-beads trypsin digestion, LC-ESI-MS/MS; 4 biological replicates; proteins interacting with YFP removed as unspecific).

binding	Binder
binds	B1
binds	B2
binds	B3
binds	B4
binds	B5
binds	B6
